Assay results as given in publication PMC9569985.
Results are given in words; binding and its absence hold for the method and conditions named. Binding seen in cells or lysates may run through a third protein. These calls come from enrichment with a bait or labelling near it, and not all partners need be listed. Where a sequence is shown, tags or fusion partners need not be part of it.

By UniProt entry, the sequences of proteins in these tests, tags left out.
UniProt P17980: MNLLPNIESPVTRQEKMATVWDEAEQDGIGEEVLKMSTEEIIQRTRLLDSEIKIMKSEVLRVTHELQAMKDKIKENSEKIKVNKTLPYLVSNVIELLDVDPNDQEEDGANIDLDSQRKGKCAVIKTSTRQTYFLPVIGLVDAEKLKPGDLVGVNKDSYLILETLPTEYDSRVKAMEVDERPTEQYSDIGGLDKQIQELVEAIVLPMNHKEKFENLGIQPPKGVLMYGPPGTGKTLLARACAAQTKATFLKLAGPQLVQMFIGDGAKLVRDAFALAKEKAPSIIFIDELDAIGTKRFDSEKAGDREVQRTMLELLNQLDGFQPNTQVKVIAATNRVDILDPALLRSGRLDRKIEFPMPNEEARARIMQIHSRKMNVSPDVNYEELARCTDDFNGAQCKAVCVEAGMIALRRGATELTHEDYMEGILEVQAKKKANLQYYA
UniProt Q8N6H7: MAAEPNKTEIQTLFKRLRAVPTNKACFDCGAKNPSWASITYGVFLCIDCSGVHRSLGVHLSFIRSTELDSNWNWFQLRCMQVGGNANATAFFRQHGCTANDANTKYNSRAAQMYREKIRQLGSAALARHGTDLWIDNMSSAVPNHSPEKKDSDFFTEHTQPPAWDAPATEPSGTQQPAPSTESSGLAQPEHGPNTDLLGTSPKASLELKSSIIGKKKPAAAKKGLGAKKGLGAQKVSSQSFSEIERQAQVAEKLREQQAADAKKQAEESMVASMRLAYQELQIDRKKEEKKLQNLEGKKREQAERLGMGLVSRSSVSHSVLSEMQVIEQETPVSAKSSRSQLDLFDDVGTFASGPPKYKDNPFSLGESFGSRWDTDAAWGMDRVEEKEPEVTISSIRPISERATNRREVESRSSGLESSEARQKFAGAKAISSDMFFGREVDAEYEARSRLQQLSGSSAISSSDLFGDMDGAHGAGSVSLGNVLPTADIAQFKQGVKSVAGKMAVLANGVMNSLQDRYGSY
UniProt Q8IZP0: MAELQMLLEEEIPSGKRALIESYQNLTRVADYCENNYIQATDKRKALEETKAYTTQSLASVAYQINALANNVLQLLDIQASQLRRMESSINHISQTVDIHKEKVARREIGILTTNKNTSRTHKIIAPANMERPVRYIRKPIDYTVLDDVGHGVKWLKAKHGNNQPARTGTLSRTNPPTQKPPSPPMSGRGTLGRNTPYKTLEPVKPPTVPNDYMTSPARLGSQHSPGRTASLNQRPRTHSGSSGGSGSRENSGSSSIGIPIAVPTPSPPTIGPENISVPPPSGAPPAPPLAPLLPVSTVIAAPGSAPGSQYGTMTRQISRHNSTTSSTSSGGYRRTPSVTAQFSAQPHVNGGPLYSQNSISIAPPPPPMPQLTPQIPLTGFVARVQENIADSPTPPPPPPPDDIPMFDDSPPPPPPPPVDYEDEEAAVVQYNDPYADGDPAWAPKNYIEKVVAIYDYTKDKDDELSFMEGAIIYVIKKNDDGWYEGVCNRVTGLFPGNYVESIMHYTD
UniProt Q13561: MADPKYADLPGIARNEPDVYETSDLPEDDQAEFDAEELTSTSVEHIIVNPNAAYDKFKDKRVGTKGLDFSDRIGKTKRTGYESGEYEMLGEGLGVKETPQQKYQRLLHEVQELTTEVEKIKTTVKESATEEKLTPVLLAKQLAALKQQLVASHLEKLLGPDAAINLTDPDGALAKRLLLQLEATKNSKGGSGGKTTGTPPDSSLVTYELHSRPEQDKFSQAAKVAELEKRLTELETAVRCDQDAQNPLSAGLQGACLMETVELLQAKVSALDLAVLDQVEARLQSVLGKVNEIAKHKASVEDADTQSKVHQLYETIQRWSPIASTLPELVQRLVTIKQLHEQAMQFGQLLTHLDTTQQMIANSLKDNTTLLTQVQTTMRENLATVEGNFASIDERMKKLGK
UniProt P60842: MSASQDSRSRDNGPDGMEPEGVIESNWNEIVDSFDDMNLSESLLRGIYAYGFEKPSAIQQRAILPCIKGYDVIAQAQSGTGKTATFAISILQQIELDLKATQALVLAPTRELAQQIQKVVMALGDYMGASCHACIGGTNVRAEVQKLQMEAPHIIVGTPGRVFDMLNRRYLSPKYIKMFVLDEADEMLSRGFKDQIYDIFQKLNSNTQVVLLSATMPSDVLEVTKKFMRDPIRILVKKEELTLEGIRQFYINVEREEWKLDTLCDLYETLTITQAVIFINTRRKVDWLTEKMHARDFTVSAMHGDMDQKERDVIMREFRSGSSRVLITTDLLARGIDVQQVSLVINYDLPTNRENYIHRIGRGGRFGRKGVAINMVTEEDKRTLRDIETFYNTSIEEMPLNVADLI
UniProt P11142: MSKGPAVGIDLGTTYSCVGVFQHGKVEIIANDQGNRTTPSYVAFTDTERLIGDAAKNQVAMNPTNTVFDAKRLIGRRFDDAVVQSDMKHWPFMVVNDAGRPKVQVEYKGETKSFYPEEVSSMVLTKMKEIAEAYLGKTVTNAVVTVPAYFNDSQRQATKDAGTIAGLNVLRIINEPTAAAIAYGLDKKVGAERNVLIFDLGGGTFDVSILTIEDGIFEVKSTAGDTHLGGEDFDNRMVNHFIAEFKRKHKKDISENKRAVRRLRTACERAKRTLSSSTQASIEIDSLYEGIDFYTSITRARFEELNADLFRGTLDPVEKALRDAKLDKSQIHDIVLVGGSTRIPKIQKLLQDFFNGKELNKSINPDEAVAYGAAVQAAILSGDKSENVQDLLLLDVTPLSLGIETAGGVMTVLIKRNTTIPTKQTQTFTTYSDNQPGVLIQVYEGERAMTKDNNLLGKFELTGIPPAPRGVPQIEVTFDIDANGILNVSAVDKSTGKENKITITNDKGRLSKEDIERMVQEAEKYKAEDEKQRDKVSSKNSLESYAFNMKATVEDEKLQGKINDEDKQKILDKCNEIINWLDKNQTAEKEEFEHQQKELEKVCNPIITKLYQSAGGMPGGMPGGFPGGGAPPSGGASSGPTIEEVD
UniProt Q9NR12: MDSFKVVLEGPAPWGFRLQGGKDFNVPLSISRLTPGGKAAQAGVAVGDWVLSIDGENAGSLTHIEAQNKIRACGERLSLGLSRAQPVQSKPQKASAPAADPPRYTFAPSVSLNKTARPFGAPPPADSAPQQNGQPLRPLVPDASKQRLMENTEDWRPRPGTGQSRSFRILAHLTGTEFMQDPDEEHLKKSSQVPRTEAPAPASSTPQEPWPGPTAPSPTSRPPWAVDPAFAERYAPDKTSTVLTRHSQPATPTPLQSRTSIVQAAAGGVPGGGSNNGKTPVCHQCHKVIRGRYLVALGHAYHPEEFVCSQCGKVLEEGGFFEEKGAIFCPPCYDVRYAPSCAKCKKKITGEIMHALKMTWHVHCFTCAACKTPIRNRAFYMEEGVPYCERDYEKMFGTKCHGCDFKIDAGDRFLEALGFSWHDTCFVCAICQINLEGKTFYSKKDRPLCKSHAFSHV
UniProt P54821: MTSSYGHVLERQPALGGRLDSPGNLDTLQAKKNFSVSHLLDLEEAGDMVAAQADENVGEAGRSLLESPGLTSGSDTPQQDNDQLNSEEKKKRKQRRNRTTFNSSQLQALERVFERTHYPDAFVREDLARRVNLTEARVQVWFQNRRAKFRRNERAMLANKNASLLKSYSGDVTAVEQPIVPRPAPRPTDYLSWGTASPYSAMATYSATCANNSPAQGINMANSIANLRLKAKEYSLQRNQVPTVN
UniProt P14618: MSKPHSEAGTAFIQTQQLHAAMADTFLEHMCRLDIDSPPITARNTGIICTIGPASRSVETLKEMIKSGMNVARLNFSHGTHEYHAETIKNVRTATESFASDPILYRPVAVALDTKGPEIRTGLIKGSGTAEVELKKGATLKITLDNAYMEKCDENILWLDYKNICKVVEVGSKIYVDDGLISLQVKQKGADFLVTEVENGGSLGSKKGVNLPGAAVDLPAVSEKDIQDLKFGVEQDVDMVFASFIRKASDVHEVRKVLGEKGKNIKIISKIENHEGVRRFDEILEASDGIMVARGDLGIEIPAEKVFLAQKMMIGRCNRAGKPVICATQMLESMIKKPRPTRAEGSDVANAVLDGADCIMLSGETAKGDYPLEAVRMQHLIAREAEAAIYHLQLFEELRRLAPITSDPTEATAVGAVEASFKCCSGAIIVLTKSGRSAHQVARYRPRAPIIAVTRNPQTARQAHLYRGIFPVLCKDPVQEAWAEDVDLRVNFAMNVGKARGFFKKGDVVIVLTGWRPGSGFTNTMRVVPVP

T1: HSPB5-BioID2 (UniProt P23927)
T1 sequence: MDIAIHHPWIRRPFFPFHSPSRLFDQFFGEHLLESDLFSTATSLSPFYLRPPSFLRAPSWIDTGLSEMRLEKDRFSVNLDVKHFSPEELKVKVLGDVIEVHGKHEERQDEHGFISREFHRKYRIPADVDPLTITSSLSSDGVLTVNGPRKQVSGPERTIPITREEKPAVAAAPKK

B1: Translocon-associated protein subunit beta (protein, UniProt P43308 18-183)
chain: EEGARLLASKSLLNRYAVEGRDLTLQYNIYNVGSSAALDVELSDDSFPPEDFGIVSGMLNVKWDRIAPASNVSHTVVLRPLKAGYFNFTSATITYLAQEDGPVVIGSTSAPGQGGILAQREFDRRFSPHFLDWAAFGVMTLPSIGIPLLLWYSSKRKYDTPKTKKN
B2: 6-phosphogluconate dehydrogenase, (enzyme, UniProt P52209 1-483)
chain: MAQADIALIGLAVMGQNLILNMNDHGFVVCAFNRTVSKVDDFLANEAKGTKVVGAQSLKEMVSKLKKPRRIILLVKAGQAVDDFIEKLVPLLDTGDIIIDGGNSEYRDTTRRCRDLKAKGILFVGSGVSGGEEGARYGPSLMPGGNKEAWPHIKTIFQGIAAKVGTGEPCCDWVGDEGAGHFVKMVHNGIEYGDMQLICEAYHLMKDVLGMAQDEMAQAFEDWNKTELDSFLIEITANILKFQDTDGKHLLPKIRDSAGQKGTGKWTAISALEYGVPVTLIGEAVFARCLSSLKDERIQASKKLKGPQKFQFDGDKKSFLEDIRKALYASKIISYAQGFMLLRQAATEFGWTLNYGGIALMWRGGCIIRSVFLGKIKDAFDRNPELQNLLLDDFFKSAVENCQDSWRRAVSTGVQAGIPMPCFTTALSFYDGYRHEMLPASLIQAQRDYFGAHTYELLAKPGQFIHTNWTGHGGTVSSSSYNA

Target: T1, HSPB5-BioID2
Assay: proximity labelling; HSPB5-BioID2 transiently overexpressed in 293T cells, biotin, with or without 5 µM MG132 for 24 h; proteins digested with trypsin (DiDBiT), biotinylated peptides purified on tamavidin 2-REV magnetic beads, nanoLC/MS/MS

Molecule	binding
26S proteasome regulatory subunit 6A (from UniProt P17980 1-439)	binds
ADP-ribosylation factor GTPase-activating protein 2 (from UniProt Q8N6H7 1-521)	binds
Abl interactor 1 (from UniProt Q8IZP0 1-508)	binds
Dynactin subunit 2 (from UniProt Q13561 1-401)	binds
Eukaryotic initiation factor 4A-I (from UniProt P60842 1-406)	binds
Heat shock cognate 71 kDa protein (from UniProt P11142 1-646)	binds
PDZ and LIM domain protein 7 (from UniProt Q9NR12 1-457)	binds
Paired mesoderm homeobox protein 1 (from UniProt P54821 1-245)	binds
Pyruvate kinase PKM (from UniProt P14618 1-531) (enzyme)	binds
Sequestosome-1 (from UniProt Q13501 1-440)	binds
Serine/threonine-protein kinase PLK2 (from UniProt Q9NYY3-1 1-685) (enzyme)	binds
B1	binds
B2	binds
